These results are taken from doi:10.1101/2020.12.21.423744.

Sequences of proteins named here, by UniProt entry; tags and fusion partners are left off.
UniProt Q86WV6, whole entry: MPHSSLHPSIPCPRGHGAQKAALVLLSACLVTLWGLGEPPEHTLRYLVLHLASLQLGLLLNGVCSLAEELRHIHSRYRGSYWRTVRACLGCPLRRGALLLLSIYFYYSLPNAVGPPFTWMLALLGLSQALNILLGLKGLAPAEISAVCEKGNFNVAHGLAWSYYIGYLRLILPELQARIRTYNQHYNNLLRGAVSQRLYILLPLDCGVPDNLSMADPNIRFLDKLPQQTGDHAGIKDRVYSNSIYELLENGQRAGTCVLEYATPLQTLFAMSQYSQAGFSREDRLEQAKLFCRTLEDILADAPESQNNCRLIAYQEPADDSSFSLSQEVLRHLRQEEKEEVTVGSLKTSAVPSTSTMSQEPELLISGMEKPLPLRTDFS

Assay [1] concerns the target STING-GFP (STimulator of INterferon Genes fused to GFP), Q86WV6. The assay is described as follows: affinity purification with mass spectrometry. The settings on record: remark: other sources report otherwise.
Assay [2] has as its target STING-GFP (STimulator of INterferon Genes fused to GFP) (UniProt Q86WV6). Briefly: affinity purification with mass spectrometry.

These are yes or no findings as the source states them, for the method shown. In cells and extracts the contact can be indirect. A yes stands for co-enrichment or nearness to the bait. Other partners may have been found. For part of these data: A no says only that the protein was not detected with the bait.

B1: DDX23, Q9BUQ8 1-820 (protein)
chain: MAGELADKKDRDASPSKEERKRSRTPDRERDRDRDRKSSPSKDRKRHRSRDRRRGGSRSRSRSRSKSAERERRHKERERDKERDRNKKDRDRDKDGHRRDKDRKRSSLSPGRGKDFKSRKDRDSKKDEEDEHGDKKPKAQPLSLEELLAKKKAEEEAEAKPKFLSKAEREAEALKRRQQEVEERQRMLEEERKKRKQFQDLGRKMLEDPQERERRERRERMERETNGNEDEEGRQKIREEKDKSKELHAIKERYLGGIKKRRRTRHLNDRKFVFEWDASEDTSIDYNPLYKERHQVQLLGRGFIAGIDLKQQKREQSRFYGDLMEKRRTLEEKEQEEARLRKLRKKEAKQRWDDRHWSQKKLDEMTDRDWRIFREDYSITTKGGKIPNPIRSWKDSSLPPHILEVIDKCGYKEPTPIQRQAIPIGLQNRDIIGVAETGSGKTAAFLIPLLVWITTLPKIDRIEESDQGPYAIILAPTRELAQQIEEETIKFGKPLGIRTVAVIGGISREDQGFRLRMGCEIVIATPGRLIDVLENRYLVLSRCTYVVLDEADRMIDMGFEPDVQKILEHMPVSNQKPDTDEAEDPEKMLANFESGKHKYRQTVMFTATMPPAVERLARSYLRRPAVVYIGSAGKPHERVEQKVFLMSESEKRKKLLAILEQGFDPPIIIFVNQKKGCDVLAKSLEKMGYNACTLHGGKGQEQREFALSNLKAGAKDILVATDVAGRGIDIQDVSMVVNYDMAKNIEDYIHRIGRTGRAGKSGVAITFLTKEDSAVFYELKQAILESPVSSCPPELANHPDAQHKPGTILTKKRREETIFA
For B1, in assay [1], the binding entry is “binds”.

B2: TBK1, Q9UHD2 1-729 (protein)
chain: MQSTSNHLWLLSDILGQGATANVFRGRHKKTGDLFAIKVFNNISFLRPVDVQMREFEVLKKLNHKNIVKLFAIEEETTTRHKVLIMEFCPCGSLYTVLEEPSNAYGLPESEFLIVLRDVVGGMNHLRENGIVHRDIKPGNIMRVIGEDGQSVYKLTDFGAARELEDDEQFVSLYGTEEYLHPDMYERAVLRKDHQKKYGATVDLWSIGVTFYHAATGSLPFRPFEGPRRNKEVMYKIITGKPSGAISGVQKAENGPIDWSGDMPVSCSLSRGLQVLLTPVLANILEADQEKCWGFDQFFAETSDILHRMVIHVFSLQQMTAHKIYIHSYNTATIFHELVYKQTKIISSNQELIYEGRRLVLEPGRLAQHFPKTTEENPIFVVSREPLNTIGLIYEKISLPKVHPRYDLDGDASMAKAITGVVCYACRIASTLLLYQELMRKGIRWLIELIKDDYNETVHKKTEVVITLDFCIRNIEKTVKVYEKLMKINLEAAELGEISDIHTKLLRLSSSQGTIETSLQDIDSRLSPGGSLADAWAHQEGTHPKDRNVEKLQVLLNCMTEIYYQFKKDKAERRLAYNEEQIHKFDKQKLYYHATKAMTHFTDECVKKYEAFLNKSEEWIRKMLHLRKQLLSLTNQCFDIEEEVSKYQEYTNELQETLPQKMFTASSGIKHTMTPIYPSSNTLVEMTLGMKKLKEEMEGVVKELAENNHILERFGSLTMDGGLRNVDCL
Turning to B2, the binding result in assay [1] is listed as “no binding”.

B3: AATF (protein, UniProt Q9NY61 1-560)
chain: MAGPQPLALQLEQLLNPRPSEADPEADPEEATAARVIDRFDEGEDGEGDFLVVGSIRKLASASLLDTDKRYCGKTTSRKAWNEDHWEQTLPGSSDEEISDEEGSGDEDSEGLGLEEYDEDDLGAAEEQECGDHRESKKSRSHSAKTPGFSVQSISDFEKFTKGMDDLGSSEEEEDEESGMEEGDDAEDSQGESEEDRAGDRNSEDDGVVMTFSSVKVSEEVEKGRAVKNQIALWDQLLEGRIKLQKALLTTNQLPQPDVFPLFKDKGGPEFSSALKNSHKALKALLRSLVGLQEELLFQYPDTRYLVDGTKPNAGSEEISSEDDELVEEKKQQRRRVPAKRKLEMEDYPSFMAKRFADFTVYRNRTLQKWHDKTKLASGKLGKGFGAFERSILTQIDHILMDKERLLRRTQTKRSVYRVLGKPEPAAQPVPESLPGEPEILPQAPANAHLKDLDEEIFDDDDFYHQLLRELIERKTSSLDPNDQVAMGRQWLAIQKLRSKIHKKVDRKASKGRKLRFHVLSKLLSFMAPIDHTTMNDDARTELYRSLFGQLHPPDEGHGD
B3: the binding entry in assay [2] is “binds”.
